According to PubChem BioAssay AID2685 (National Center for Advancing Translational Sciences (NCATS), 2010):
Some of the results follow. Shown are side measurements of this screen, not its main read-out; they come without a call. Compounds called inactive in the main read-out are mostly missing here. The note in brackets gives the kind of curve behind each potency; many fits are weak.

Experiment: qHTS Assay for Lipid Storage Modulators in Drosophila S3 Cells;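 on cell number change: cells counted by Cell Tracker Red CMTPX staining in the red channel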
Settings: BODIPY lipid droplet fluorescence, 18-24 h; for cell number change: measured here: cell count max response, cells fed with added oleic acid
How it was run: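 Drosophila S3 cells loaded with oleic acid (400 uM, as added) and compounds at several concentrations; lipid droplets imaged by 488-nm laser-scanning cytometry, 500–530 nm intensity and object ratio to cell channel. Percent activity normalized to 20 uM Triacsin C.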

[1] = measured here: lipid fluorescence (Fed channel) AC50, cells fed with added oleic acid
[2] = measured here: cell number channel AC50, cells fed with added oleic acid

| SMILES | cell number change | AC50 [1] | AC50 [2] |
| --- | --- | --- | --- |
| Cc1oc(-c2cccc(Cl)c2)nc1CN1CCC(C(=O)NCCCN2CC(C)CC(C)C2)CC1 (stereo not given) | 11.3% | 18.4 µM [rising, partial curve] | – |
| Cc1ccccc1C(=O)c1cccn1CC(=O)O | 25.3% | 0.206 µM [falling, full curve] | – |
| O=C(NCc1ccc(F)cc1)Nc1cccc(Cl)c1 | 26.1% | – | – |
| COc1cc(/C=C(\C#N)c2nc3ccc(C)cc3[nH]2)c([N+](=O)[O-])cc1OC | -5.13% | – | – |
| Cc1ccccc1CN1C(=O)Nc2ccccc2C(=O)N1C(C)(C)C | -5.46% | 29.1 µM [rising, single point] | 0.82 µM [falling, single point] |
| CCOc1ccc(CN(C(=O)c2oc3cc(C)ccc3c2C)C2CCS(=O)(=O)C2)cc1 (stereo not given) | 53.3% | – | 0.731 µM [rising, full curve] |
| CC(=O)Nc1ccc(S(=O)(=O)Nc2ccc3c(c2)CCC3)cc1 | 22.1% | – | – |
| CCCCC(=O)NC1(C(F)(F)F)NC(=O)N(Cc2ccccc2)C1=O (stereo not given) | 0.797% | 0.00461 µM [rising, full curve, poor fit] | – |
| CC(=O)CC(=O)NC(=NC1CCCCC1)Nc1nc(C)cc(C)n1 | – | 1.64 µM [rising, partial curve] | – |
| CCCN1C(=O)C(Cc2nc3ccccc3c(=O)n2-c2ccccc2)c2ccccc21 (stereo not given) | 24.1% | 1.16 µM [falling, full curve, poor fit] | 4.11 µM [rising, full curve, poor fit] |
| CC(C)Cc1nnc(NC(=O)CCC(=O)N2CCN(c3ccccc3F)CC2)s1 | 12.5% | 6.51 µM [rising, single point] | – |
| Cc1ccc(C(=O)Nc2ncc([N+](=O)[O-])s2)cc1 | – | 18.4 µM [falling, partial curve] | – |
| Nc1c(Cl)ncnc1NCc1cccnc1 | – | 29.1 µM [rising, single point] | 0.259 µM [rising, full curve, poor fit] |
| COc1ccc(C)cc1NC(=O)c1ccc2c(O)c(S(=O)(=O)c3ccccc3)c(=O)[nH]c2c1 | 10.2% | – | – |
| CSCCC(NS(=O)(=O)c1ccccc1F)C(=O)NCc1cccs1 (stereo not given) | 16.3% | 0.651 µM [falling, single point] | – |
| CN(C(=O)CSC1=NCCS1)c1ccccc1 | 8.06% | 6.51 µM [falling, single point] | – |
| NS(=O)(=O)c1ccc(NC(=S)N2CCN(c3ccccc3Cl)CC2)cc1 | 43.1% | 0.058 µM [rising, full curve, poor fit] | 3.26 µM [rising, partial curve, poor fit] |
| COC(=O)/C(=C(O)\C=C\c1ccccc1[N+](=O)[O-])c1nc2ccccc2[nH]1 | -16.2% | 6.51 µM [rising, single point] | – |
| CCC(C)NC(=O)CCCCCn1c(=O)[nH]c2cc(OC)c(OC)cc2c1=O (stereo not given) | 7.11% | 0.092 µM [falling, full curve, poor fit] | – |
| Cc1ccc(C)c(N(C)S(=O)(=O)c2cccc3nsnc23)c1 | 30.9% | 0.00411 µM [rising, full curve, poor fit] | 25.9 µM [rising, single point] |
| CCCCOc1ccc(C(CC(=O)NC)C(=O)O)cc1 (stereo not given) | -27.8% | 29.1 µM [falling, single point] | 4.11 µM [falling, full curve, poor fit] |
| COc1cccc(OCC(Cn2c(C)nc3ccccc32)OC(C)=O)c1 (stereo not given) | -2.39% | – | – |
| C/C(=N\NC(=O)c1ccc(N(C)C)cc1)c1ccc(C)cc1C | 15.6% | 7.31 µM [rising, partial curve] | 0.259 µM [rising, partial curve, poor fit] |
| Cc1ccc(/C(N)=N/OC(=O)CCC2CCCCC2)cc1 | -7.53% | – | 2.06 µM [rising, single point] |
| Cc1ccc(S(=O)(=O)Cc2ccc(C(=O)N3CCN(c4ccc(F)cc4)CC3)o2)cc1 | – | 1.64 µM [rising, single point] | 0.58 µM [rising, single point] |
| COC(=O)c1ccc(COc2ccccc2/C=C(\C#N)C(=O)Nc2ccc(C)cc2)cc1 | -33.9% | 1.84 µM [falling, full curve, poor fit] | 29.1 µM [falling, single point] |
| CCn1c(C)cc(C(=O)CSc2nnnn2C2CCCC2)c1C | -4.28% | 0.00517 µM [rising, full curve, poor fit] | – |
| O=S(=O)(NCCNS(=O)(=O)c1ccccc1)c1ccccc1 | -61.8% | 29.1 µM [falling, single point] | 3.66 µM [falling, full curve] |
| Cc1nn(Cc2c(Cl)cccc2Cl)c(C)c1C(=O)NCc1ccc(C)n1C | 82.3% | 3.26 µM [rising, partial curve] | 3.26 µM [rising, full curve] |

Three structures already listed, sorted by length of the SMILES, high to low.

| SMILES | cell number change | AC50 [1] | AC50 [2] |
| --- | --- | --- | --- |
| Cc1oc(-c2cccc(Cl)c2)nc1CN1CCC(C(=O)NCCCN2CC(C)CC(C)C2)CC1 (stereo not given) | 11.3% | 18.4 µM [rising, partial curve] | – |
| CCCN1C(=O)C(Cc2nc3ccccc3c(=O)n2-c2ccccc2)c2ccccc21 (stereo not given) | 24.1% | 1.16 µM [falling, full curve, poor fit] | 4.11 µM [rising, full curve, poor fit] |
| COc1cccc(OCC(Cn2c(C)nc3ccccc32)OC(C)=O)c1 (stereo not given) | -2.39% | – | – |
